Assay results from publication PMC6797205.
No constants are given. Whether binding was seen depends on the method and setting. Some binding calls cover weakened binding; strength is not graded here.

Biological target: Arabidopsis thaliana ARF5 PB1 domain (AtARF5-PB1) (Arabidopsis thaliana) (UniProt P93024)
Assay: SEC-MALS; SEC-MALLS on Superdex-S200 increase, 25 C, 0.5 mL/min; Tris-HCl 20 mM pH 8, TCEP 1 mM (untagged CaARF-PB1 and AtARF5); CaARF-PB1 at 5, 2.5, 1.25 and 0.625 mg/mL; both purified

- binding: binds
B1: Arabidopsis thaliana ARF5 PB1 domain (AtARF5-PB1) (domain or fragment, UniProt P93024 779-902)
chain: SKGSSWQKIATPRVRTYTKVQKTGSVGRSIDVTSFKDYEELKSAIECMFGLEGLLTHPQSSGWKLVYVDYESDVLLVGDDPWEEFVGCVRCIRILSPTEVQQMSEEGMKLLNSAGINDLKTSVS
